Source: patent US20250345370A1, “MICROBIAL LIBERATION OF N-METHYLSEROTONIN FROM ORANGE FIBER” (Washington University, priority 2022, published 2025)
The source gives many values for each of these; only a part stands here.

Tested on: colon gene expression
Experiment: RNA-Seq of colonic tissue of germ-free mice treated with 50 mg/kg/d N-methylserotonin
Format: in vivo, germ-free C57BL/6J mice
Settings: colon

With `CNCCc1c[nH]c2ccc(O)cc12` [N-methylserotonin] the log2 fold-change (gene Smtn) was 0.31, the log2 fold-change (gene Snord17) was −0.67 and the log2 fold-change (gene Snph) was 0.59. For the same compound, the log2 fold-change (gene Sowahc) was −0.42, the log2 fold-change (gene Sp3) was −0.25 and the log2 fold-change (gene Sprr2a3) was −0.89. It also gave a log2 fold-change (gene Spryd3) of 0.38, a log2 fold-change (gene Sptlc2) of −0.30 and a log2 fold-change (gene Srgap3) of 0.41. For the same compound, the log2 fold-change (gene Ssc5d) was 0.94, the log2 fold-change (gene St3gal6) was −0.82 and the log2 fold-change (gene St8sia5) was −1.14. It also gave a log2 fold-change (gene Steap4) of −0.63, a log2 fold-change (gene Stom) of −0.64 and a log2 fold-change (gene Styk1) of −0.33. It also gave a log2 fold-change (gene Sult1b1) of −0.53, a log2 fold-change (gene Sval1) of −0.90 and a log2 fold-change (gene Svil) of 0.29. It also gave a log2 fold-change (gene Svs1) of 8.01, a log2 fold-change (gene Svs2) of 8.79 and a log2 fold-change (gene Svs3a) of 7.68. The log2 fold-change (gene Svs3b) was 8.03, the log2 fold-change (gene Svs4) was 8.34 and the log2 fold-change (gene Svs5) was 7.81. The log2 fold-change (gene Svs6) was 7.66, the log2 fold-change (gene Syngr1) was 0.50 and the log2 fold-change (gene Synj2bp) was −0.39. For the same compound, the log2 fold-change (gene Tank) was −0.46, the log2 fold-change (gene Tax1bp1) was −0.24 and the log2 fold-change (gene Tbc1d16) was 0.37. For the same compound, the log2 fold-change (gene Tbc1d30) was 0.39, the log2 fold-change (gene Tbx3) was 1.10 and the log2 fold-change (gene Tcaf3) was 11.09. It also gave a log2 fold-change (gene Tcf23) of 0.69, a log2 fold-change (gene Tecpr1) of 0.34 and a log2 fold-change (gene Tef) of 0.72. It also gave a log2 fold-change (gene Tent5a) of −0.43, a log2 fold-change (gene Tff3) of −0.39 and a log2 fold-change (gene Tfrc) of −0.40. For the same compound, the log2 fold-change (gene Tgfb1i1) was 0.54, the log2 fold-change (gene Tgm3) was −1.21 and the log2 fold-change (gene Thbs4) was −0.62. The log2 fold-change (gene Tinag) was −0.53, the log2 fold-change (gene Tle3) was 0.34 and the log2 fold-change (gene Tlr1) was −0.34. It also gave a log2 fold-change (gene Tlr4) of −0.58, a log2 fold-change (gene Tm4sf20) of −0.54 and a log2 fold-change (gene Tm6sf2) of −0.61. It also gave a log2 fold-change (gene Tmem37) of −0.93, a log2 fold-change (gene Tmem45b) of −0.53 and a log2 fold-change (gene Tmem168) of −0.48. For the same compound, the log2 fold-change (gene Tmem236) was −0.43, the log2 fold-change (gene Tnip3) was −1.18 and the log2 fold-change (gene Tnk2) was 0.56. The log2 fold-change (gene Tnks1bp1) was 0.36, the log2 fold-change (gene Tnni1) was −1.14 and the log2 fold-change (gene Tns2) was 0.57. For the same compound, the log2 fold-change (gene Tnxb) was 0.50, the log2 fold-change (gene Top2a) was −0.42 and the log2 fold-change (gene Tpd52l1) was 1.19. The log2 fold-change (gene Tpm2) was 0.30, the log2 fold-change (gene Trf) was −0.35 and the log2 fold-change (gene Trmt1l) was −0.43. For the same compound, the log2 fold-change (gene Trpm6) was −0.72, the log2 fold-change (gene Tsku) was 0.48 and the log2 fold-change (gene Tspan1) was −0.41. It also gave a log2 fold-change (gene Tspan3) of −0.37, a log2 fold-change (gene Ttc9c) of −0.31 and a log2 fold-change (gene Ttll10) of 0.60. It also gave a log2 fold-change (gene Tubb2a) of 0.36, a log2 fold-change (gene Tubgcp4) of −0.36 and a log2 fold-change (gene Tyms) of −0.45. It also gave a log2 fold-change (gene Ubald1) of 0.67, a log2 fold-change (gene Umad1) of −0.44 and a log2 fold-change (gene Usp2) of 0.51. It also gave a log2 fold-change (gene Usp53) of −0.34, a log2 fold-change (gene Vasn) of 0.62 and a log2 fold-change (gene Vsig1) of −1.14. The log2 fold-change (gene Vsig2) was 0.69, the log2 fold-change (gene Wdr6) was 0.46 and the log2 fold-change (gene Wdr46-ps) was 1.52.
